Data reported in publication PMC4422300.
No constants are given. Whether binding was seen depends on the method and setting. Binding seen in cells or lysates may run through a third protein. Some results given as binding are weak or reduced against the parent protein; the word gives no strength.

Target: T1, Checkpoint kinase Chk1 (human (endogenous in HCT116)) (UniProt O14757)
T1 sequence: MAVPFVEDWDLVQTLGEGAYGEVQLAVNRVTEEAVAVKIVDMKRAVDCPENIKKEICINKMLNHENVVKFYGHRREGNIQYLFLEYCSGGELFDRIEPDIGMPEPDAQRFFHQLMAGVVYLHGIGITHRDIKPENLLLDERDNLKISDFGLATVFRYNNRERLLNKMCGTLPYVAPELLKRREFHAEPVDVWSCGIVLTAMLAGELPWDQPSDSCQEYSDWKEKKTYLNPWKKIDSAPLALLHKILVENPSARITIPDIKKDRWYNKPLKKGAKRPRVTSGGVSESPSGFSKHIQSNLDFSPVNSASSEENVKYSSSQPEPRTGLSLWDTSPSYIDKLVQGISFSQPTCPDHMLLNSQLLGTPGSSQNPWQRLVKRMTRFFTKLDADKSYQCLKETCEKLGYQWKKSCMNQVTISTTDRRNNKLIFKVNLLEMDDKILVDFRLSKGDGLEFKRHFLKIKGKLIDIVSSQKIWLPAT
Test: co-IP; mitochondrial extracts (± UV); immunoprecipitation with anti-Chk1 ab, immunoblot for BAK, PUMA, Bcl-xL

binding: binds
Substance: Bcl-xL (from UniProt Q07817-1 1-233)
